Measured values from the M2OR odorant receptor database.
The entries are a selection whose mix differs from that of the whole data set. Calls are pooled over several reports, among them a noisy single-well screen. This is one part of the list.

Chains of the proteins cited; added tags and fusions are not shown. A line that says so, or that is headed by a name, gives the form on record, which may keep a tag or linker.
OR5H2, as listed by the source: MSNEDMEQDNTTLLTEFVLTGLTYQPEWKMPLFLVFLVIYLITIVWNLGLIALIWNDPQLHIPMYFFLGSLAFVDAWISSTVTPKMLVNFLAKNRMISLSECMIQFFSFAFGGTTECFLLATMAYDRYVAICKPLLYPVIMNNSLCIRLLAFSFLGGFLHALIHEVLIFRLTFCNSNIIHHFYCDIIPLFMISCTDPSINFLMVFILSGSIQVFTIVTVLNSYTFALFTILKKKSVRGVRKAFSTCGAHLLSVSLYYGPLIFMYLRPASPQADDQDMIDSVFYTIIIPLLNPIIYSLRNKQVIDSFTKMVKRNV

Legend:
Settings in all cases: stereoisomer not certain
OR5H1 = test system: T1, OR5H1
T1 sequence (whole entry): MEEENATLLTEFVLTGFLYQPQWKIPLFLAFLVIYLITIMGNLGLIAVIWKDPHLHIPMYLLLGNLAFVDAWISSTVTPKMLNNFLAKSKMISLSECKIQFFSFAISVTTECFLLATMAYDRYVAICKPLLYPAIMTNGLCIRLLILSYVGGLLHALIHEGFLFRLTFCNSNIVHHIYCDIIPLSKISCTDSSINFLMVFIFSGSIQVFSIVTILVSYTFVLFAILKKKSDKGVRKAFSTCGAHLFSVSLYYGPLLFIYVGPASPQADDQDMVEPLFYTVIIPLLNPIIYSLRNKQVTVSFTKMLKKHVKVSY
How it was run: (§1)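 Values were gathered from published papers (main text and supplementary material), with extra details requested from the original authors when needed, and checked for typos and inconsistencies. Each receptor–molecule pair is called responsive (active) if the original authors judged the measured signal statistically different from baseline, and non-responsive (inactive) otherwise. Assay methods varied by source, often transient mammalian cell-line luciferase assays. Recorded details include cell line, G-protein, co-transfected protein and tags.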

OR5H2 [1] = test system: T2, OR5H2
T2 sequence (whole entry): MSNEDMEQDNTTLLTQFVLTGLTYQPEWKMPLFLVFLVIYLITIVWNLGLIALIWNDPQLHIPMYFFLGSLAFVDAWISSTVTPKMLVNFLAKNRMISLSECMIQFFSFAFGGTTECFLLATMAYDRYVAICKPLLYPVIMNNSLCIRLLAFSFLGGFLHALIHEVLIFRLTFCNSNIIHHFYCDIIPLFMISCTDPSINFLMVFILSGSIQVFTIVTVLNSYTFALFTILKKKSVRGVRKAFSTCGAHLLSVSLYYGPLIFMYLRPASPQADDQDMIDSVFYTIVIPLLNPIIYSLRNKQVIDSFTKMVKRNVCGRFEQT
How it was run: as §1

OR5H2 [2] = test system: T3, OR5H2; remark: listed apart in the source
T3 sequence (whole entry): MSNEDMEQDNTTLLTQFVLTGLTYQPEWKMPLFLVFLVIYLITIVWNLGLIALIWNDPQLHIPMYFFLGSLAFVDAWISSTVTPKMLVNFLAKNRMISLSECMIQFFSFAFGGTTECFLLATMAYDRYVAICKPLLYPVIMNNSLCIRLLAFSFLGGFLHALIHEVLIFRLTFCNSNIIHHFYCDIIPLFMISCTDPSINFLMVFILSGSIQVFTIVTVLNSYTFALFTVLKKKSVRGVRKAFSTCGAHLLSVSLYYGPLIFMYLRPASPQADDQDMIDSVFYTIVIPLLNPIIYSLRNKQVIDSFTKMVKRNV
How it was run: as §1

OR5H6 [3] = test system: T4, OR5H6
T4 sequence (whole entry): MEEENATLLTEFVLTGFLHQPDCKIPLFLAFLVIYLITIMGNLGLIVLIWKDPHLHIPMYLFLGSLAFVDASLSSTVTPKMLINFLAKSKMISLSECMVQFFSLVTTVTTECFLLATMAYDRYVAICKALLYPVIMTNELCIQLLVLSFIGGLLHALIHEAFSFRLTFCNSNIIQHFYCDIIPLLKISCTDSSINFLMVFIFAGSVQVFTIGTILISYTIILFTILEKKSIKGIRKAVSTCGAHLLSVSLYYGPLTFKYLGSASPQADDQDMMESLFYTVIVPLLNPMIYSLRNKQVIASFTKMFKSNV
How it was run: as §1

OR5H6 [4] = test system: T5, OR5H6; remark: listed apart in the source
T5 sequence (whole entry): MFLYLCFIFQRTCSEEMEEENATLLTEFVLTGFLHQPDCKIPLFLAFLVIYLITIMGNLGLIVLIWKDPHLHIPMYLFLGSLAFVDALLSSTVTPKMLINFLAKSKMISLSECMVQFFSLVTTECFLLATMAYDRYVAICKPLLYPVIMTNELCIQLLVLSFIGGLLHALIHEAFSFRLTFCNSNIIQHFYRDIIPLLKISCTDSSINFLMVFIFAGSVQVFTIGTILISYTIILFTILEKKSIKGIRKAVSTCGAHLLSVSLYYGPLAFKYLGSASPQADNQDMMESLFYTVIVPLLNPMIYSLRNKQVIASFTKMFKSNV
How it was run: as §1

OR5I1 (Homo sapiens) = biological target: T6, OR5I1 (Homo sapiens) (UniProt Q13606)
T6 sequence (whole entry): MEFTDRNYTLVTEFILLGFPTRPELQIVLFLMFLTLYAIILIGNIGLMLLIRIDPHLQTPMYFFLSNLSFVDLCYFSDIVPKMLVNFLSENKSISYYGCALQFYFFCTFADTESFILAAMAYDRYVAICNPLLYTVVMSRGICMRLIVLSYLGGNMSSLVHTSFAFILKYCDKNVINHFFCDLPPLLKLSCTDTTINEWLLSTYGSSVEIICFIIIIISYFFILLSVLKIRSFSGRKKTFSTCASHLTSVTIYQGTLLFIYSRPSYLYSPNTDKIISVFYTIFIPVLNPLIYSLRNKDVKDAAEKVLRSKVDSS
How it was run: as §1

OR5J2 (Homo sapiens) = biological target: T7, OR5J2 (Homo sapiens) (UniProt Q8NH18)
T7 sequence (whole entry): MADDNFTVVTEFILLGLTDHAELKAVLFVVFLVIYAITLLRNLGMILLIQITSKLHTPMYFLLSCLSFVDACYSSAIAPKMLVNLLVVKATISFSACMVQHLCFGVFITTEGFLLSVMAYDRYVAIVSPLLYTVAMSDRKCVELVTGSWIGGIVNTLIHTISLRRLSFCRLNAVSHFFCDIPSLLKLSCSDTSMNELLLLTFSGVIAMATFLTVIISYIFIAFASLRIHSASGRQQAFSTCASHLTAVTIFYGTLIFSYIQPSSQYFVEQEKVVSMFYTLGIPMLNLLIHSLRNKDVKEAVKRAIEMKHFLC
How it was run: as §1

OR5H15 (Homo sapiens) = OR5H15 (Homo sapiens) (UniProt A6NDH6)
How it was run: as §1

OR5H2 [5] = test system: OR5H2; remark: listed apart in the source
How it was run: as §1

OR5H6 (Homo sapiens) = OR5H6 (Homo sapiens) (UniProt Q8NGV6)
How it was run: as §1

Measured: odorant receptor agonist call

C=CC(C)(O)CCC=C(C)C (stereo not given)
inactive: OR5H1 | OR5H2 [1] | OR5H2 [2] | OR5H6 [3] | OR5H6 [4] | OR5I1 (Homo sapiens) | OR5J2 (Homo sapiens)

CC(C)=CCCC(C)=CC=O
inactive: OR5H1 | OR5H2 [1] | OR5H2 [2] | OR5H6 [3] | OR5H6 [4] | OR5I1 (Homo sapiens) | OR5J2 (Homo sapiens)

CC(C)C(=O)O
inactive: OR5H1 | OR5H2 [1] | OR5H2 [2] | OR5H6 [3] | OR5H6 [4] | OR5I1 (Homo sapiens) | OR5J2 (Homo sapiens)

CC(C)(C)c1ccc(CCC=O)cc1
inactive: OR5H1 | OR5H2 [1] | OR5H2 [2] | OR5H6 [3] | OR5H6 [4] | OR5I1 (Homo sapiens) | OR5J2 (Homo sapiens)

CC=Cc1ccc(O)c(OC)c1
active: OR5J2 (Homo sapiens)
inactive: OR5H1 | OR5H2 [1] | OR5H2 [2] | OR5H6 [3] | OR5H6 [4] | OR5I1 (Homo sapiens)

CC1=CCC(C(C)(C)O)CC1 (stereo not given)
inactive: OR5H1 | OR5H2 [1] | OR5H2 [2] | OR5H6 [3] | OR5H6 [4] | OR5I1 (Homo sapiens) | OR5J2 (Homo sapiens)

CC1CCC(C(C)C)C(O)C1 (stereo not given)
active: OR5H1 | OR5H6 [3]
inactive: OR5H2 [1] | OR5H2 [2] | OR5H6 [4] | OR5I1 (Homo sapiens) | OR5J2 (Homo sapiens)

CC12CCC(C1)C(C)(C)C2=O (stereo not given)
inactive: OR5H1 | OR5H2 [1] | OR5H2 [2] | OR5H6 [3] | OR5H6 [4] | OR5I1 (Homo sapiens) | OR5J2 (Homo sapiens)

O=C1CCCCC1
inactive: OR5H1 | OR5H2 [1] | OR5H2 [2] | OR5H6 [3] | OR5H6 [4] | OR5I1 (Homo sapiens)

CC12C=CCC1C1CCC3CC(=O)CCC3(C)C1CC2 (stereo not given)
inactive: OR5H15 (Homo sapiens) | OR5H1 | OR5H2 [5] | OR5H2 [1] | OR5H2 [2] | OR5H6 (Homo sapiens) | OR5H6 [3] | OR5H6 [4] | OR5J2 (Homo sapiens)

COc1cc(C=O)ccc1O
inactive: OR5H1 | OR5H2 [1] | OR5H2 [2] | OR5H6 [3] | OR5H6 [4] | OR5I1 (Homo sapiens) | OR5J2 (Homo sapiens)

CCCCCCCOC(C)=O
inactive: OR5H1 | OR5H2 [1] | OR5H2 [2] | OR5H6 [3] | OR5H6 [4] | OR5I1 (Homo sapiens) | OR5J2 (Homo sapiens)
